For test [1], the target named is endogenous p38α (human (endogenous in HT29)) (UniProt Q16539). Put plainly: co-IP; HT29 whole-cell lysates immunoprecipitated with anti-p38α or anti-c-MYC, then immunoblotting; IgG as negative control; endogenous proteins.
Test [2] deals with GST-p38α human recombinant protein (human) (UniProt Q16539). Put plainly: pull-down; GST-p38α incubated with c-MYC recombinant protein for 1 h at 4 °C on a rocking platform; precipitated with glutathione magnetic agarose beads; washed in buffer A (20 mM Tris-HCl pH 8, 150 mM KCl, 5 mM MgCl2, 0.2 mM EDTA, 10% glycerol, 0.1% NP-40, 1 mM DTT); immunoblot with anti-GST, anti-HIS and anti-c-MYC; both purified.

Amino acid sequences for entries named in this document (tags omitted).
UniProt Q16539: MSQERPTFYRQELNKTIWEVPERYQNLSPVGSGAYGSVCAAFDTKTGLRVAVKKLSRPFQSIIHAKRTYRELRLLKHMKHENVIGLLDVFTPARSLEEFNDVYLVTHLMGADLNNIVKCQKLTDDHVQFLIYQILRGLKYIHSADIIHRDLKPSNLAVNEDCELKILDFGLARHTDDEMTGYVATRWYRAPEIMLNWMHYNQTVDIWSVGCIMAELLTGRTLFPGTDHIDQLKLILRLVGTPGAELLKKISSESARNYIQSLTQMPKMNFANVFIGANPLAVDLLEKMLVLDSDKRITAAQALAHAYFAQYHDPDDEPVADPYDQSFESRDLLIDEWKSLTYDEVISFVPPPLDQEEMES
UniProt P01106: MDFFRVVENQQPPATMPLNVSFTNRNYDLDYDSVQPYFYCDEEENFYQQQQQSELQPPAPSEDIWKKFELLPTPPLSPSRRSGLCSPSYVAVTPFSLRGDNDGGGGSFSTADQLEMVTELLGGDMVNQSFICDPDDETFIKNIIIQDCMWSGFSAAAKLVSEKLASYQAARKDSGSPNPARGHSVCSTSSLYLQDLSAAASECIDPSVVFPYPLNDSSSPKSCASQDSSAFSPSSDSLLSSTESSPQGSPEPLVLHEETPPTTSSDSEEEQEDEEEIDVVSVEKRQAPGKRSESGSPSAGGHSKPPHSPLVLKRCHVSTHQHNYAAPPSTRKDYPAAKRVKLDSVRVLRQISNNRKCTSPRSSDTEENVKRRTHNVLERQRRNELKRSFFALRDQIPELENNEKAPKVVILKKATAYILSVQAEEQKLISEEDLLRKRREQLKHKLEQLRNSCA

No constants are given. Whether binding was seen depends on the method and setting. For some assays here: Binding seen in cells or lysates may run through a third protein. Some binding calls cover weakened binding; strength is not graded here.

For the substance “endogenous c-MYC (from UniProt P01106 1-454)”, the binding entry in test [1] is recorded as “binds”. Turning to “c-MYC human recombinant protein (Abcam) (from UniProt P01106 1-454)”, the binding result in test [2] was “binds”.

Source of the values: PMC9562641.
